Test results reported in patent US20160032278A1.
Substitutions are numbered along the chain they refer to. No constants are given. Whether binding was seen depends on the method and setting. Some results given as binding are weak or reduced against the parent protein; the word gives no strength. Where a sequence is shown, tags or fusion partners need not be part of it.

B1: Ad-ySUMO 1 (designed binder)
chain: NSLEIEELARFAVDEHNKKENALLEFVRVVKAKEQWDLTGNVDTTMYYLTLEAKDGGKKKLYEAKVWVKWDDWGERFWNFKELQEFKPVGDA
B2: Ad-ySUMO 2 (designed binder)
chain: NSLEIEELARFAVDEHNKKENALLEFVRVVKAKEQIDLTNSFASTMYYLTLEAKDGGKKKLYEAKVWVKDINQYWHSMNFKELQEFKPVGDA
B3: Ad-ySUMO 3 (designed binder)
chain: NSLEIEELARFAVDEHNKKENALLEFVRVVKAKEQINLMMVSPMTMYYLTLEAKDGGKKKLYEAKVWVKGIQQNPSHANFKELQEFKPVGDA
B4: Ad-ySUMO 4 (designed binder)
chain: NSLEIEELARFAVDEHNKKENALLEFVRVVKAKEQIDLTHSLNYTMYYLTLEAKDGGKKKLYEAKVWVKGLTNEIQKMNFKELQEFKPVGDA
B5: Ad-ySUMO 5 (designed binder)
chain: B4 chain
B6: Ad-ySUMO 6 (designed binder)
chain: NSLEIEELARFAVDEHNKKENALLEFVRVVKAKEQIDLTEWQDRTMYYLTLEAKDGGKKKLYEAKVWVKPEPIHSHHSNFKELQEFKPVGDA
B7: Ad-ySUMO 7 (designed binder)
chain: NSLEIEELARFAVDEHNKKENALLEFVRVVKAKEQWVDMDYYWRTMYYLTLEAKDGGKKKLYEAKVWVKMDEIWAEYANFKELQEFKPVGDA
B8: Ad-ySUMO 8 (designed binder)
chain: NSLEIEELARFAVDEHNKKENALLEFVRVVKAKEQIDLTQTEIVTMYYLTLEAKDGGKKKLYEAKVWVKEPGIIPIVHNFKELQEFKPVGDA
B9: Ad-ySUMO 9 (designed binder)
chain: NSLEIEELARFAVDEHNKKENALLEFVRVVKAKEQIDLTDVWIDTMYYLTLEAKDGGKKKLYEAKVWVKGLMTQTNSMNFKELQEFKPVGDA
B10: Ad-ySUMO 10 (designed binder)
chain: NSLEIEELARFAVDEHNKKENALLEFVRVVKAKEQIIIHENDADTMYYLTLEAKDGGKKKLYEAKVWVKGIMDGLNKYNFKELQEFKPVGDA
B11: Ad-ySUMO 11 (designed binder)
chain: NSLEIEELARFAVDEHNKKENALLEFVRVVKAKEQWILNNTQFITMYYLTLEAKDGGKKKLYEAKVWVKVLEGPDRWTVNFKELQEFKPVGDA
B12: Ad-ySUMO 12 (designed binder)
chain: NSLEIEELARFAVDEHNKKENALLEFVRVVKAKEQWYERSENWDTMYYLTLEAKDGGKKKLYEAKVWVKRDYGFTLVPNFKELQEFKPVGDA
B13: Ad-ySUMO 13 (designed binder)
chain: NSLEIEELARFAVDEHNKKENALLEFVRVVKAKEQWDLTTPINITMYYLTLEAKDGGKKKLYEAKVWVKYEDYQTPMYNFKELQEFKPVGDA
B14: Ad-ySUMO 14 (designed binder)
chain: NSLEIEELARFAVDEHNKKENALLEFVRVVKAKEQWFDDEYDWITMYYLTLEAKDGGKKKLYEAKVWVKDYAATDLYWNFKELQEFKPVGDA
B15: Ad-ySUMO 15 (designed binder)
chain: NSLEIEELARFAVDEHNKKENALLEFVRVVKAKEQIDLTQPHDSTMYYLTLEAKDGGKKKLYEAKVWVKYEEDEYWRMNFKELQEFKPVGDA
B16: Ad-ySUMO 16 (designed binder)
chain: NSLEIEELARFAVDEHNKKENALLEFVRVVKAKEQIDLTQSFDMTMYYLTLEAKDGGKKKLYEAKVWVKPIDSNFTGTNFKELQEFKPVGDA
B17: Ad-ySUMO 17 (designed binder)
chain: NSLEIEELARFAVDEHNKKENALLEFVRVVKAKEQWYLLDVMDDTMYYLTLEAKDGGKKKLYEAKVWVKHDRRYKQAENFKELQEFKPVGDA
B18: Ad-ySUMO 18 (designed binder)
chain: NSLEIEELARFAVDEHNKKENALLEFVRVVKAKEQWIDRGQYWDTMYYLTLEAKDGGKKKLYEAKVWVKIHNGYTIMDNFKELQEFKPVGDA
B19: Ad-ySUMO 19 (designed binder)
chain: NSLEIEELARFAVDEHNKKENALLEFVRVVKAKEQWSEADNDWHTMYYLTLEAKDGGKKKLYEAKVWVKLDLETWQHFNFKELQEFKPVGDA
B20: Ad-ySUMO 20 (designed binder)
chain: NSLEIEELARFAVDEHNKKENALLEFVRVVKAKEQIDLTGQWLFTMYYLTLEAKDGGKKKLYEAKVWVKPLWQYDAQYNFKELQEFKPVGDA
B21: Ad-ySUMO 22 (designed binder)
chain: B16 chain
B22: Ad-ySUMO 23 (designed binder)
chain: B15 chain with Y70P, E71H, E72D, D73E, E74L, Y75N, R77N
B23: Ad-ySUMO 24 (designed binder)
chain: NSLEIEELARFAVDEHNKKENALLEFVRVVKAKEQWEDFQTHWETMYYLTLEAKDGGKKKLYEAKVWVKDVGQLLSGINFKELQEFKPVGDA

Experiments:
[1] = biological target: yeast Small Ubiquitin-like Modifier protein (SUMO) (yeast) [SUMO: Q12306]; experiment: phage ELISA on biotinylated ySUMO
[2] = biological target: yeast Small Ubiquitin-like Modifier protein (SUMO) (yeast) [SUMO: Q12306]; experiment: ELISA with biotinylated Adhiron
[3] = biological target: yeast Small Ubiquitin-like Modifier protein (SUMO) (yeast) [SUMO: Q12306]; experiment: ELISA and Western blot with biotinylated Adhiron
[4] = biological target: yeast Small Ubiquitin-like Modifier protein (SUMO) (yeast) [SUMO: Q12306]; experiment: NMR, 1H-15N TROSY HSQC of the complex

Binder	binding [1]	also measured
B1	binds	–
B2	binds	–
B3	binds	–
B4	binds	–
B5	binds	–
B6	binds	–
B7	binds	–
B8	binds	–
B9	binds	–
B10	binds	binding [2]: binds; binding [3]: binds
B11	binds	–
B12	binds	–
B13	binds	–
B14	binds	–
B15	binds	binding [2]: binds; binding [4]: binds; binding [3]: binds
B16	binds	–
B17	binds	–
B18	binds	–
B19	binds	–
B20	binds	binding [2]: binds; binding [3]: binds
B21	binds	binding [2]: binds; binding [3]: binds
B22	binds	–
B23	binds	–
